Test results: patent US20120225807A1
Results are given in words; binding and its absence hold for the method and conditions named. Some results given as binding are weak or reduced against the parent protein; the word gives no strength. Tags and fused reporters may be left off the sequences shown.

What was measured:
[1] = target: streptavidin (UniProt P22629); test: phage ELISA
[2] = target: streptavidin (UniProt P22629); test: phage ELISA, streptavidin coated on plate, anti-M13/HRP detection

B1: PHPEP 97 peptide displayed on phage fused to pVII (peptide, not shown: large carriers)
chain: RECHPQNWTSCSNGSGGG
modifications: disulfide bond constrained peptide
binding [1]: binds | binding [2]: binds
